Test: Storage stability of extract solution (frozen storage 71 days)
Format: physicochemical, human
From the text: A filter paper with added blood derived from a test subject is brought into contact with a solvent (extraction buffer) to obtain the solvent after contact (hereinafter may be abbreviated as extract solution), which storage stability was investigated.
A part of the blood extract solution (100% water) from the filter paper obtained and stored in Example 2 (15 days of chilled storage) and a part of the solution for LC-MS/MS measurement (water containing 67% acetonitrile) were frozen-stored. After 71 days of frozen storage, the supernatant of the former obtained by adding twice the amount of acetonitrile thereto, mixing and centrifuging (24,250×g, 10 minutes, 4° C.), and the supernatant of the latter obtained by centrifuging (24,250×g, 10 minutes, 4° C.) the solution after storage were both measured by LC-MS/MS under the same conditions as in Example 2.

NC(=O)c1ccc[n+]([C@@H]2O[C@H](COP(=O)([O-])OP(=O)(O)OC[C@H]3O[C@@H](n4cnc5c(N)ncnc54)[C@H](O)[C@@H]3O)[C@@H](O)[C@H]2O)c1 [NAD+, nicotinamide adenine dinucleotide]
Concentration (mean) (903 card chilled 15 days, extract solution 100% water, frozen 71 days): 75.50 µM | Concentration (mean) (903 card chilled 15 days, extract solution with twice the amount of acetonitrile added, frozen 71 days): 26.40 µM | Concentration (mean) (DMPK-A card chilled 15 days, extract solution 100% water, frozen 71 days): 41.44 µM | Concentration (mean) (DMPK-A card chilled 15 days, extract solution with twice the amount of acetonitrile added, frozen 71 days): 25.37 µM | Concentration (mean) (DMPK-B card chilled 15 days, extract solution 100% water, frozen 71 days): 26.37 µM | Concentration (mean) (DMPK-B card chilled 15 days, extract solution with twice the amount of acetonitrile added, frozen 71 days): 28.14 µM | Concentration (mean) (DMPK-C card chilled 15 days, extract solution 100% water, frozen 71 days): 58.05 µM | Concentration (mean) (DMPK-C card chilled 15 days, extract solution with twice the amount of acetonitrile added, frozen 71 days): 21.10 µM | Concentration (mean) (human blood, filter paper: none, storage for 0 days (initial value, Tables 18 and 20)): 28.41 µM
